According to patent US20050223417A1:
No constants are given. Whether binding was seen depends on the method and setting. Binding seen in cells or lysates may run through a third protein. Some results given as binding are weak or reduced against the parent protein; the word gives no strength.

Sequences of proteins named here, by UniProt entry; tags and fusion partners are left off. A change or cut given only in a name is not applied to a line headed by its entry.
UniProt P51943: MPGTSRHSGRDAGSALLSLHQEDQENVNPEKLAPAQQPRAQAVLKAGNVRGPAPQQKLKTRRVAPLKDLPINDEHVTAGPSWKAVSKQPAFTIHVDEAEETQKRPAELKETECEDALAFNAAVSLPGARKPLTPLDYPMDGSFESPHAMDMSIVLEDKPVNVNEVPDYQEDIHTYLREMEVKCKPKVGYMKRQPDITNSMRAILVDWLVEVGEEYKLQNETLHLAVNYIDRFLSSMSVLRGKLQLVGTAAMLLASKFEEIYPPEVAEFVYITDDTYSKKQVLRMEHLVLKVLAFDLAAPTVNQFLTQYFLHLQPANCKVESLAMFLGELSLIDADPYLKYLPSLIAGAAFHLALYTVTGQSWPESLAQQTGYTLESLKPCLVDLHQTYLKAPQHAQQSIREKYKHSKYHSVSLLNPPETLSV
UniProt P46414: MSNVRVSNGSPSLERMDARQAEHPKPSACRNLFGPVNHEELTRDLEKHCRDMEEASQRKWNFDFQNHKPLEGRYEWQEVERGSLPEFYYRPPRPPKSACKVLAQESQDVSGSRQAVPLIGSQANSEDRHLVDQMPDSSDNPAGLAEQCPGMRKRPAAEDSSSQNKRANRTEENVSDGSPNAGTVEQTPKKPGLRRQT

Biological target: cyclin A (mouse) (UniProt P51943)
Test: association in extracts of serum-stimulated p27^T187A MEFs in late S/G2; method not described (presumably co-immunoprecipitation and immunoblot)

- binding: binds
Substance: p27^T187A protein (mouse p27^Kip1 with threonine 187 changed to alanine) (from UniProt P46414 1-197)
